## Library screen at single concentrations

Results are given as percent effect. How 0% and 100% were set is not recorded. Most values in the screen are low, and negative values occur. The compounds are a random part of those screened.

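Whole-parasite assay of Trypanosoma brucei over 72 hours; the read-out is not stated. Compounds at 30 µM. Higher reads as stronger inhibition (inferred: compounds with an IC50 in retests scored well above the rest). Values scatter widely below zero; nearly all retest evidence comes from the higher of the two concentrations used. Size under these conditions: about 64,000 compounds, about 940 of them at 50% or above in at least one test.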

structure | percent effect
OCC1CCCCN1Cc1nc(Cc2cccc(F)c2)no1 (stereo not given) | -104%
COc1ccc(F)cc1Cn1nc(C(N)=O)ccc1=O | -16.08%
CN(C)c1ncc2c(n1)CN(C1CC(C)(C)NC(C)(C)C1)C2=O | -21.52%
CCn1cc(CN2CCC(c3nnc(CN(C)C)n3CC)CC2)cn1 | -27.45%
Fc1cnc(N2CCCn3c(nnc3Cn3cccc3)C2)nc1.O=C(O)C(F)(F)F | -5.842%
COCC1CCCCN1C(=O)c1cc(Cn2ccc3ccccc32)[nH]n1 (stereo not given) | -3.123%
Cc1cc(=O)[nH]c(SC(C)C(=O)N2CCC(NS(C)(=O)=O)CC2)n1 (stereo not given) | -18.3%
Cc1nc(C(=O)N2CCCC(c3cccc(-n4ccnc4)n3)C2)co1 (stereo not given) | -30.14%
Cc1ccc(CN2CCCN(Cc3cscn3)CC2)cc1 | 4.001%
Oc1cc(CN2CCC(O)(Cn3ccnc3)CC2)nc2c(Cl)cccc12 | -2.217%
OCc1ccc(CN2CCC(n3cc(C4CCCCC4)nn3)CC2)o1 | -30.1%
[H][C@@]12C[C@H](C(=O)NC(C)C)[C@@]([H])(CN(C(=O)NCc3ccccc3)C1)O2 | 43.99%
O=C(O)C(F)(F)F.[H][C@@]12C[C@@H](c3nc(C4CC4)cs3)O[C@]1([H])CN(C(=O)c1cccn1C)C2 | -16.96%
CC(C1CC1)N(CC(=O)NC(=O)NC1CC1)C1CC1 (stereo not given) | -14.3%
Cc1ccc(-c2csc3c(=O)[nH]c(N4CCCC(C(N)=O)C4)nc23)cc1 (stereo not given) | 1.729%
O=C(O)C(F)(F)F.O=C(O)C(F)(F)F.c1cncc(N2CCOCC3(CN(Cc4cccs4)CCO3)C2)c1 (stereo not given) | -756.3%
Cc1nnc(N2CC[C@@H](OCC3CC3)[C@@H](Cc3ccccc3)C2)s1.O=C(O)C(F)(F)F | 100.5%
CN(C)c1ncc(-c2c(-c3ccccc3)ncn2C(CO)C(=O)O)cn1 (stereo not given) | -5.851%
Cc1ccc(CC(NC(=O)CN(C)C2CC2)c2ccccn2)cc1 (stereo not given) | 99.62%
CC(C)C(C)NC(=O)CNc1cc2c(cc1Cl)NC(=O)CO2 (stereo not given) | -10.93%
CCN(Cc1ccc2c(c1)OCCO2)C(=O)NCc1cc[nH]n1 | -17.67%
CN(C)C(=O)c1ccc2c(c1)N(C)C(CC(=O)NCCOCCO)CO2 (stereo not given) | -21.88%
[H][C@@]12CCN(Cc3cccnc3OC)[C@]1([H])CC[C@H](c1nnc(C)o1)O2 | -59.36%
CCCn1c(C)c(CC(=O)NC)c2c1CC(C)(C)CC2=O | 24.04%
Cn1cccc1C(=O)NC(C)(C(N)=O)c1cccc(C(F)(F)F)c1 (stereo not given) | -23.32%
CN1CCC[C@H]1c1nc(-c2cncnc2N)no1 | -15.11%
[H][C@]12CN(C)CCN1C(=O)N(c1ccccc1)C2 | -4.514%
CC(=O)N[C@@H]1CN(C(=O)c2cc3sccc3[nH]2)C[C@H]1c1ccc(C)o1 | -31.67%
CC1CCN(C(=O)CSCc2nc(C3CC3)no2)CC1 | -103.6%
Cc1cccnc1CN1CCN(C(=O)CCn2ccc(=O)[nH]c2=O)CC1 | 5.108%
CCc1[nH]c2c(CNc3cncc(C(=O)N(C)C)n3)cc(F)cc2c1C | -24%
Cc1ccccc1CCNC(=O)C1CC(=O)N(CC(F)(F)F)C1 (stereo not given) | -35.82%
[H][C@]12CNC[C@@]1(C(=O)NCCOc1ccccc1F)CN(C(C)=O)C2 | -3.427%
CC(C)c1cc(C2CCCN2C(=O)CN2C(=O)OC(C)(C)C2=O)no1 (stereo not given) | -25.01%
CC(C)(C)CC(=O)NCC(=O)Nc1ccn(Cc2cccnc2)n1 | -21.36%
CC(C)c1nsc(NC2CCOC3(CCCC3)C2)n1 (stereo not given) | -8.543%
COc1ccc(CNCC2CCN(CC(C)O)CC2)c2ccccc12 (stereo not given) | -4.116%
O=C(Nc1cccnc1N1CCSCC1)c1ccc2c(c1)OCO2 | 14.05%
CCN(CCC(=O)NC1CC1)Cc1ccc(Cl)s1 | 1.663%
CNC(=O)C1CN(C)CCN(C(=O)CCn2nnc3ccccc32)C1 (stereo not given) | 9.947%
Cn1cccc1C(O)CNS(=O)(=O)c1ccccc1Br (stereo not given) | 101.8%
Cc1nn(CCO)c(C)c1CNC1CCOc2ccccc21.Cl (stereo not given) | -7.206%
CCNc1ncc(C(=O)N(C)C(C)c2ccc3c(c2)OCCO3)cn1 (stereo not given) | -14.89%
O=S(=O)(NCc1ccc(S(=O)(=O)N2CCCC2)s1)c1ccc(Cl)cc1 | -28.71%
O=C(Nc1nncs1)N1CCCN(C2CCCCC2)CC1 | -8.243%
O=C(O)C(F)(F)F.[H][C@@]12CN(C(=O)c3ccccc3)CCO[C@]1([H])CN(c1cnccn1)C2 | -16.87%
COCC(=O)NC(C)Cc1cccc(Br)c1 (stereo not given) | -6.631%
Cn1c(CC2CCS(=O)(=O)C2)nnc1SCCOc1ccccc1F (stereo not given) | -6.67%
CC(C)c1cc(C2CCN(C(=O)Cn3cnnn3)CC2)[nH]n1 | -10.65%
CC(C)NC(=O)N1CCCC2(CC(C(=O)Nc3ccccc3)=NO2)C1 (stereo not given) | -105.2%
Cc1cc(NCCCOC(C)C)c2nncn2n1 | -20.9%
Cc1ccc(C(=O)N2CCN(C(=O)Cc3ccccn3)CC2)c(C)c1 | -11.92%
Cn1c(=O)c2cc(C(=O)NCc3ccccn3)ccc2n(C)c1=O | -4.804%
COC(=O)N1CCc2ccccc2C1C(=O)NCc1cccs1 (stereo not given) | 10.88%
Cn1cnnc1C1CCN(C(=O)c2cc3c(s2)CCC3)CC1 | 5.398%
O=C(O)c1cccc(C2CCCN(S(=O)(=O)C3CC3)C2)c1 (stereo not given) | -35.86%
CCNC(c1cccnc1)c1ccc(F)c(C)c1 (stereo not given) | 4.884%
CCc1ccc(C(O)CN2CCN(c3cccc(OC)c3)CC2)cc1 (stereo not given) | -8.228%
CC(C)(CC(=O)N(CC(N)=O)C1CCCC1)c1ccccc1 | -3.487%
CCN(CCC#N)Cn1ncc2cn(-c3ccccc3)nc2c1=O | 6.358%
COCCc1noc(CN(C)C(=O)C(C)N2CCc3ccccc3C2)n1 (stereo not given) | -19.97%
CNC(=O)C1(N(C)CCc2ccccc2)Cc2ccccc2C1 | -102.5%
NC(=O)C1CCN(C(=O)c2ccn(-c3cccc(F)c3)n2)C1 (stereo not given) | -19.69%

Some entries from above, unchanged:

structure,percent effect
Fc1cnc(N2CCCn3c(nnc3Cn3cccc3)C2)nc1.O=C(O)C(F)(F)F,-5.842%
Cc1ccc(CC(NC(=O)CN(C)C2CC2)c2ccccn2)cc1 (stereo not given),99.62%
CN1CCC[C@H]1c1nc(-c2cncnc2N)no1,-15.11%
Cn1c(CC2CCS(=O)(=O)C2)nnc1SCCOc1ccccc1F (stereo not given),-6.67%

The values are deposited in ChEMBL (CHEMBL3988442, “University of Dundee, Small-Polar-MMV Screening Library” (2021)).